Assay results reported in PMC7316826.
These are yes or no findings as the source states them, for the method shown. In cells and extracts the contact can be indirect. Some binding calls cover weakened binding; strength is not graded here.

By UniProt entry, the sequences of proteins in these tests, tags left out. Residues count along the entry.
UniProt Q9QUK6, residues 26-835: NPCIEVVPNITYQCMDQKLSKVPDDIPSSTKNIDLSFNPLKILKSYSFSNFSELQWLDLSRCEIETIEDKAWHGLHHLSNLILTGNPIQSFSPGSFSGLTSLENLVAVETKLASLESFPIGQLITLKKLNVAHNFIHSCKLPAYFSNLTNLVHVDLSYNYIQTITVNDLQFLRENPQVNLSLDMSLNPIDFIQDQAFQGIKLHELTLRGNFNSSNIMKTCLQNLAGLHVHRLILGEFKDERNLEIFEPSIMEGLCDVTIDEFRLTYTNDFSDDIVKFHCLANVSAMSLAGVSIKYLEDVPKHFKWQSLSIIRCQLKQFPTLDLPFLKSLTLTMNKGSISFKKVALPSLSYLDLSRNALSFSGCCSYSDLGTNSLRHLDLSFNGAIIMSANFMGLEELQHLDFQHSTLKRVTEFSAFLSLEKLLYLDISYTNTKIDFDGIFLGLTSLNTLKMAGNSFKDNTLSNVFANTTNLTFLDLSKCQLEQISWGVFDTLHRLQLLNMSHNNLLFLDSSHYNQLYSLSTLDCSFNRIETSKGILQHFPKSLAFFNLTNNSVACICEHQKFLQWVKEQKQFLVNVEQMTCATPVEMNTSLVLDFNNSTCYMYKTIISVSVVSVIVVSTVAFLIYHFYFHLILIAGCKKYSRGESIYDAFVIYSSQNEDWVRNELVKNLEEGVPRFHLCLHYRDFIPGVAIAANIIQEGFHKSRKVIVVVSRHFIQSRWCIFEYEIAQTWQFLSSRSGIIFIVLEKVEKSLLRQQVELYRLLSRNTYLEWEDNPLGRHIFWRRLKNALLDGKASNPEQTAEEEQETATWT

T1: lysophosphatidylcholine acyltransferase 2 (LPCAT2) (mouse (endogenous in RAW264.7)) (UniProt Q8BYI6)
T1 sequence: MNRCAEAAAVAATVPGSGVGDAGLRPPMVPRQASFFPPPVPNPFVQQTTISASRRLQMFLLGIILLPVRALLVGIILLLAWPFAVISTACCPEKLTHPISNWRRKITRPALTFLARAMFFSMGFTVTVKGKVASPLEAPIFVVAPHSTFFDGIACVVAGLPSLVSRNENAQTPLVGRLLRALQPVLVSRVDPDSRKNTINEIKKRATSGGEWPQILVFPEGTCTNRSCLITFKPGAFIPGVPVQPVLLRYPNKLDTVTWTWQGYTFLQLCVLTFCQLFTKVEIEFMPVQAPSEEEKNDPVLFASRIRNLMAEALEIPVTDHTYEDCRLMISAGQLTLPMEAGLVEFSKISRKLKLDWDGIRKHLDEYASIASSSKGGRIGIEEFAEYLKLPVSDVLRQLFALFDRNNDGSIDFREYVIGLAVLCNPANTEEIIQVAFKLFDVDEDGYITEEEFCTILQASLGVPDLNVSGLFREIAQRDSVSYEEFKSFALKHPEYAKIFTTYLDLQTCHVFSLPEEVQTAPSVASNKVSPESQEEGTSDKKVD


Assays:
[1] = biological target: T1, lysophosphatidylcholine acyltransferase 2 (LPCAT2) (mouse (endogenous in RAW264.7)); assay: co-IP; cells stimulated with LPS for 15 or 30 minutes; lysate pre-cleared with normal antibodies of the same species; IP with anti-TLR4 or anti-LPCAT2 antibody, immunoblot for the other protein
[2] = biological target: TLR4 (mouse (endogenous in RAW264.7)) (UniProt Q9QUK6); assay: co-IP; unstimulated (resting) cells; lysate pre-cleared with normal antibodies of the same species; IP with anti-TLR4 or anti-LPCAT2 antibody, immunoblot for the other protein
[3] = biological target: TLR4 (mouse (endogenous in RAW264.7)) (UniProt Q9QUK6); assay: co-IP; cells stimulated with LPS for 15 or 30 minutes; lysate pre-cleared with normal antibodies of the same species; IP with anti-TLR4 or anti-LPCAT2 antibody, immunoblot for the other protein

Row | Molecule | binding [1] | binding [2] | binding [3]
1 | TLR4 (from UniProt Q9QUK6 26-835) (receptor) | binds | – | –
2 | lysophosphatidylcholine acyltransferase 2 (LPCAT2) (enzyme, UniProt Q8BYI6-1 1-544) MNRCAEAAAVAATVPGSGVGDAGLRPPMVPRQASFFPPPVPNPFVQQTTISASRRLQMFLLGIILLPVRALLVGIILLLAWPFAVISTACCPEKLTHPISNWRRKITRPALTFLARAMFFSMGFTVTVKGKVASPLEAPIFVVAPHSTFFDGIACVVAGLPSLVSRNENAQTPLVGRLLRALQPVLVSRVDPDSRKNTINEIKKRATSGGEWPQILVFPEGTCTNRSCLITFKPGAFIPGVPVQPVLLRYPNKLDTVTWTWQGYTFLQLCVLTFCQLFTKVEIEFMPVQAPSEEEKNDPVLFASRIRNLMAEALEIPVTDHTYEDCRLMISAGQLTLPMEAGLVEFSKISRKLKLDWDGIRKHLDEYASIASSSKGGRIGIEEFAEYLKLPVSDVLRQLFALFDRNNDGSIDFREYVIGLAVLCNPANTEEIIQVAFKLFDVDEDGYITEEEFCTILQASLGVPDLNVSGLFREIAQRDSVSYEEFKSFALKHPEYAKIFTTYLDLQTCHVFSLPEEVQTAPSVASNKVSPESQEEGTSDKKVD | – | binds weakly | binds
